Measurements reported in patent publication EP1452589A1.
No constants are given. Whether binding was seen depends on the method and setting. Some results given as binding are weak or reduced against the parent protein; the word gives no strength.

Amino acid sequences for entries named in this document (tags omitted).
UniProt P61586: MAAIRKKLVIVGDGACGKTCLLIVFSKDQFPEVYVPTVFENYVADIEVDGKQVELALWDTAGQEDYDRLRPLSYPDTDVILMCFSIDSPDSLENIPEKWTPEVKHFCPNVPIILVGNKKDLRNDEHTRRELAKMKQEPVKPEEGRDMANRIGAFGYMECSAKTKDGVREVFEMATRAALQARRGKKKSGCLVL

B1: ADP-ribosyltransferase C3cer wild type (enzyme)
chain: GNIPTKPKDCNNVDKYKLCTNKEEADAWGKKQFNKWSKEEKSAIRDYTKNARPYNEFLRMHAGKLDSDPTMKKKIESLDKALNRKEAKVNDNIKVYRGDDAWIFGKEYDNSIIKNGKVDREKFKEIQKKFQGKTTTEFGYISTSILIDAGYAKTRPVMTEFKVGSGTHGAYMNSDDLTAYPGQYELLLPRNTVYKIEKIYIAIDNNTQKEQIKVEATIK
B2: C3cer R155E (enzyme)
chain: GNIPTKPKDCNNVDKYKLCTNKEEADAWGKKQFNKWSKEEKSAIRDYTKNARPYNEFLRMHAGKLDSDPTMKKKIESLDKALNRKEAKVNDNIKVYRGDDAWIFGKEYDNSIIKNGKVDREKFKEIQKKFQGKTTTEFGYISTSILIDAGYAKTEPVMTEFKVGSGTHGAYMNSDDLTAYPGQYELLLPRNTVYKIEKIYIAIDNNTQKEQIKVEATIK
B3: C3cer R59K (enzyme)
chain: GNIPTKPKDCNNVDKYKLCTNKEEADAWGKKQFNKWSKEEKSAIRDYTKNARPYNEFLKMHAGKLDSDPTMKKKIESLDKALNRKEAKVNDNIKVYRGDDAWIFGKEYDNSIIKNGKVDREKFKEIQKKFQGKTTTEFGYISTSILIDAGYAKTRPVMTEFKVGSGTHGAYMNSDDLTAYPGQYELLLPRNTVYKIEKIYIAIDNNTQKEQIKVEATIK
B4: C3cer T151V (enzyme)
chain: GNIPTKPKDCNNVDKYKLCTNKEEADAWGKKQFNKWSKEEKSAIRDYTKNARPYNEFLRMHAGKLDSDPTMKKKIESLDKALNRKEAKVNDNIKVYRGDDAWIFGKEYDNSIIKNGKVDREKFKEIQKKFQGKTTTEFGYISTSILIDAGVAKTRPVMTEFKVGSGTHGAYMNSDDLTAYPGQYELLLPRNTVYKIEKIYIAIDNNTQKEQIKVEATIK
B5: C3cer E185Q (enzyme)
chain: GNIPTKPKDCNNVDKYKLCTNKEEADAWGKKQFNKWSKEEKSAIRDYTKNARPYNEFLRMHAGKLDSDPTMKKKIESLDKALNRKEAKVNDNIKVYRGDDAWIFGKEYDNSIIKNGKVDREKFKEIQKKFQGKTTTEFGYISTSILIDAGYAKTRPVMTEFKVGSGTHGAYMNSDDLTAYPGQYQLLLPRNTVYKIEKIYIAIDNNTQKEQIKVEATIK
B6: C3cer T178A (enzyme)
chain: GNIPTKPKDCNNVDKYKLCTNKEEADAWGKKQFNKWSKEEKSAIRDYTKNARPYNEFLRMHAGKLDSDPTMKKKIESLDKALNRKEAKVNDNIKVYRGDDAWIFGKEYDNSIIKNGKVDREKFKEIQKKFQGKTTTEFGYISTSILIDAGYAKTRPVMTEFKVGSGTHGAYMNSDDLAAYPGQYELLLPRNTVYKIEKIYIAIDNNTQKEQIKVEATIK
B7: C3cer Q183E (enzyme)
chain: GNIPTKPKDCNNVDKYKLCTNKEEADAWGKKQFNKWSKEEKSAIRDYTKNARPYNEFLRMHAGKLDSDPTMKKKIESLDKALNRKEAKVNDNIKVYRGDDAWIFGKEYDNSIIKNGKVDREKFKEIQKKFQGKTTTEFGYISTSILIDAGYAKTRPVMTEFKVGSGTHGAYMNSDDLTAYPGEYELLLPRNTVYKIEKIYIAIDNNTQKEQIKVEATIK
B8: C3cer R97K (enzyme)
chain: GNIPTKPKDCNNVDKYKLCTNKEEADAWGKKQFNKWSKEEKSAIRDYTKNARPYNEFLRMHAGKLDSDPTMKKKIESLDKALNRKEAKVNDNIKVYKGDDAWIFGKEYDNSIIKNGKVDREKFKEIQKKFQGKTTTEFGYISTSILIDAGYAKTRPVMTEFKVGSGTHGAYMNSDDLTAYPGQYELLLPRNTVYKIEKIYIAIDNNTQKEQIKVEATIK
B9: C3cer R59K/R97K (enzyme)
chain: GNIPTKPKDCNNVDKYKLCTNKEEADAWGKKQFNKWSKEEKSAIRDYTKNARPYNEFLKMHAGKLDSDPTMKKKIESLDKALNRKEAKVNDNIKVYKGDDAWIFGKEYDNSIIKNGKVDREKFKEIQKKFQGKTTTEFGYISTSILIDAGYAKTRPVMTEFKVGSGTHGAYMNSDDLTAYPGQYELLLPRNTVYKIEKIYIAIDNNTQKEQIKVEATIK

Target: Wild type RhoA expressed as recombinant glutathione S-transferase fusion protein (UniProt P61586)
Assay: precipitation with GST-RhoA on glutathione Sepharose beads, Western blot (+: normal binding to RhoA)

| Binder | binding |
| --- | --- |
| B1 | binds |
| B2 | binds |
| B3 | binds |
| B4 | binds |
| B5 | binds |
| B6 | binds |
| B7 | binds |
| B8 | binds |
| B9 | binds |
